Data: patent US11225470B2, “Tetrazolinone compounds and its use as pest control agents” (SUMITOMO CHEMICAL COMPANY, LIMITED, priority 2016, dated 2022)
Read-outs that look alike come from different tables or passages of the source. Some of these results come from one statement about several compounds together.

Test system: rice blast fungi (Magnaporthe grisea)
Format: in vivo
Settings: rice cv HINOHIKARI, contact with infected seedlings for 6 days

CSC(=NC(C)C)SCc1c(C)cccc1-n1nnn(C)c1=O [4-12]
lesion area compared to the lesion area in an untreated rice (500 ppm foliar spray): ≤ 30%

CCC(=NN=C(C)C(C)=NOC)OCc1c(C)cccc1-n1nnn(C)c1=O [1-10]
lesion area compared to the lesion area in an untreated rice (200 ppm foliar spray): ≤ 30%
lesion area compared to the lesion area in an untreated rice (500 ppm foliar spray): ≤ 30%

CCC(=NN=C(C)C(C)=NOC(C)C)OCc1c(C)cccc1-n1nnn(C)c1=O [A-3]
lesion area compared to the lesion area in an untreated rice (200 ppm foliar spray): ≤ 30%
lesion area compared to the lesion area in an untreated rice (500 ppm foliar spray): ≤ 30%

COc1ccc(N=C(SC)SCc2c(C)cccc2-n2nnn(C)c2=O)cc1 [4-5]
lesion area compared to the lesion area in an untreated rice (200 ppm foliar spray): ≤ 30%

CCC(=NN=C(C)c1cccc2c1CCC2)OCc1c(C)cccc1-n1nnn(C)c1=O [D-10]
lesion area compared to the lesion area in an untreated rice (200 ppm foliar spray): ≤ 30%

CCC(=NN=C(C)C(C)=NOCc1ccccc1)OCc1c(C)cccc1-n1nnn(C)c1=O [C-1]
lesion area compared to the lesion area in an untreated rice (200 ppm foliar spray): ≤ 30%
lesion area compared to the lesion area in an untreated rice (500 ppm foliar spray): ≤ 30%

CSC(=Nc1cccc(C(F)(F)F)c1)SCc1c(C)cccc1-n1nnn(C)c1=O [4-1]
lesion area compared to the lesion area in an untreated rice (200 ppm foliar spray): ≤ 30%
lesion area compared to the lesion area in an untreated rice (500 ppm foliar spray): ≤ 30%

Cc1cccc(-n2nnn(C)c2=O)c1C=NOC(C)c1cccc(C(F)(F)F)c1 (stereo not drawn) [6-2]
lesion area compared to the lesion area in an untreated rice (500 ppm foliar spray): ≤ 30%

CCC(=NN=C1CCc2c(F)cccc21)OCc1c(C)cccc1-n1nnn(C)c1=O [E-2]
lesion area compared to the lesion area in an untreated rice (200 ppm foliar spray): ≤ 30%
lesion area compared to the lesion area in an untreated rice (500 ppm foliar spray): ≤ 30%

CCC(=NN=C1CCOc2ccc(F)cc21)OCc1c(C)cccc1-n1nnn(C)c1=O [E-17]
lesion area compared to the lesion area in an untreated rice (200 ppm foliar spray): ≤ 30%
lesion area compared to the lesion area in an untreated rice (500 ppm foliar spray): ≤ 30%

CCC(=NN=C(C)C(C)=NOCc1cccc(OC)c1)OCc1c(C)cccc1-n1nnn(C)c1=O [C-10]
lesion area compared to the lesion area in an untreated rice (200 ppm foliar spray): ≤ 30%

CCC(=NN=C1CCOc2ccccc21)OCc1c(Cl)cccc1-n1nnn(C)c1=O [E-13]
lesion area compared to the lesion area in an untreated rice (200 ppm foliar spray): ≤ 30%
lesion area compared to the lesion area in an untreated rice (500 ppm foliar spray): ≤ 30%

CSC(=Nc1ccc(OC(F)(F)F)cc1)SCc1c(C)cccc1-n1nnn(C)c1=O [4-8]
lesion area compared to the lesion area in an untreated rice (200 ppm foliar spray): ≤ 30%
lesion area compared to the lesion area in an untreated rice (500 ppm foliar spray): ≤ 30%

CCC(=NN=C(C)c1cnc2ccccc2c1)OCc1c(C)cccc1-n1nnn(C)c1=O [D-5]
lesion area compared to the lesion area in an untreated rice (200 ppm foliar spray): ≤ 30%

CCCCN=C(SC)SCc1c(C)cccc1-n1nnn(C)c1=O [3-16]
lesion area compared to the lesion area in an untreated rice (200 ppm foliar spray): ≤ 30%
lesion area compared to the lesion area in an untreated rice (500 ppm foliar spray): ≤ 30%

CCC(=NN=C(C)c1nc2ccccc2s1)OCc1c(C)cccc1-n1nnn(C)c1=O [1-5]
lesion area compared to the lesion area in an untreated rice (200 ppm foliar spray): ≤ 30%
lesion area compared to the lesion area in an untreated rice (500 ppm foliar spray): ≤ 30%

CCC(=NN=C(C)c1cn(C)c2ccccc12)OCc1c(C)cccc1-n1nnn(C)c1=O [D-17]
lesion area compared to the lesion area in an untreated rice (200 ppm foliar spray): ≤ 30%

CCC(=NN=C(C)C(C)=NOCc1ccccc1C)OCc1c(C)cccc1-n1nnn(C)c1=O [C-7]
lesion area compared to the lesion area in an untreated rice (200 ppm foliar spray): ≤ 30%

CCC(=NN=C(C)C(C)=NOCc1ccccc1OC)OCc1c(C)cccc1-n1nnn(C)c1=O [C-9]
lesion area compared to the lesion area in an untreated rice (200 ppm foliar spray): ≤ 30%

CCC(=NN=C(C)c1cc2ccccc2o1)OCc1c(C)cccc1-n1nnn(C)c1=O [1-2]
lesion area compared to the lesion area in an untreated rice (200 ppm foliar spray): ≤ 30%
lesion area compared to the lesion area in an untreated rice (500 ppm foliar spray): ≤ 30%

CCC(=NN=C(C)C(C)=NOCC1CC1)OCc1c(C)cccc1-n1nnn(C)c1=O [C-4]
lesion area compared to the lesion area in an untreated rice (200 ppm foliar spray): ≤ 30%
lesion area compared to the lesion area in an untreated rice (500 ppm foliar spray): ≤ 30%

CSC(=NCCc1ccccc1Cl)SCc1c(C)cccc1-n1nnn(C)c1=O [3-31]
lesion area compared to the lesion area in an untreated rice (200 ppm foliar spray): ≤ 30%
lesion area compared to the lesion area in an untreated rice (500 ppm foliar spray): ≤ 30%

CSC(=NCCc1cccc(F)c1)SCc1c(C)cccc1-n1nnn(C)c1=O [3-26]
lesion area compared to the lesion area in an untreated rice (200 ppm foliar spray): ≤ 30%

CCC(=NN=C(C)C(C)=NOCC#N)OCc1c(C)cccc1-n1nnn(C)c1=O [C-13]
lesion area compared to the lesion area in an untreated rice (200 ppm foliar spray): ≤ 30%
lesion area compared to the lesion area in an untreated rice (500 ppm foliar spray): ≤ 30%

CCC(=NN=C1CCOc2c(F)ccc(F)c21)OCc1c(C)cccc1-n1nnn(C)c1=O [E-27]
lesion area compared to the lesion area in an untreated rice (200 ppm foliar spray): ≤ 30%
lesion area compared to the lesion area in an untreated rice (500 ppm foliar spray): ≤ 30%

CCC(=NN=C(C)c1cccc2c1OC(F)(F)O2)OCc1c(C)cccc1-n1nnn(C)c1=O [D-9]
lesion area compared to the lesion area in an untreated rice (500 ppm foliar spray): ≤ 30%

CSC(=NCCc1ccc(F)cc1)SCc1c(C)cccc1-n1nnn(C)c1=O [3-27]
lesion area compared to the lesion area in an untreated rice (200 ppm foliar spray): ≤ 30%
lesion area compared to the lesion area in an untreated rice (500 ppm foliar spray): ≤ 30%

CCC(=NN=C(C)C(C)=NOCc1ccc(C)cc1)OCc1c(C)cccc1-n1nnn(C)c1=O [C-8]
lesion area compared to the lesion area in an untreated rice (200 ppm foliar spray): ≤ 30%
lesion area compared to the lesion area in an untreated rice (500 ppm foliar spray): ≤ 30%

CCC(=NN=C(C)C(C)=NOCSC)OCc1c(C)cccc1-n1nnn(C)c1=O [C-15]
lesion area compared to the lesion area in an untreated rice (200 ppm foliar spray): ≤ 30%

CCC(=NN=C(C)c1ccn(C)n1)OCc1c(C)cccc1-n1nnn(C)c1=O [D-19]
lesion area compared to the lesion area in an untreated rice (200 ppm foliar spray): ≤ 30%
lesion area compared to the lesion area in an untreated rice (500 ppm foliar spray): ≤ 30%

CCC(=NN=C(C)C(C)=NOCc1cccc(C)c1)OCc1c(C)cccc1-n1nnn(C)c1=O [C-11]
lesion area compared to the lesion area in an untreated rice (200 ppm foliar spray): ≤ 30%
lesion area compared to the lesion area in an untreated rice (500 ppm foliar spray): ≤ 30%

CCC(=NN=C(C)c1cncnc1)OCc1c(C)cccc1-n1nnn(C)c1=O [1-8]
lesion area compared to the lesion area in an untreated rice (500 ppm foliar spray): ≤ 30%

CCC(=NN=C1CCc2ccccc21)OCc1c(C)cccc1-n1nnn(C)c1=O [E-1]
lesion area compared to the lesion area in an untreated rice (200 ppm foliar spray): ≤ 30%

CCC(=NN=C(C)c1ccco1)OCc1c(C)cccc1-n1nnn(C)c1=O [1-1]
lesion area compared to the lesion area in an untreated rice (200 ppm foliar spray): ≤ 30%

CCC(=NN=C1CCOc2ccc(OC)cc21)OCc1c(C)cccc1-n1nnn(C)c1=O [E-18]
lesion area compared to the lesion area in an untreated rice (200 ppm foliar spray): ≤ 30%
lesion area compared to the lesion area in an untreated rice (500 ppm foliar spray): ≤ 30%

CCC(=NN=C1CCc2cc(F)ccc21)OCc1c(C)cccc1-n1nnn(C)c1=O [E-3]
lesion area compared to the lesion area in an untreated rice (200 ppm foliar spray): ≤ 30%

CCC(=NN=C1CCSc2ccccc21)OCc1c(C)cccc1-n1nnn(C)c1=O [E-28]
lesion area compared to the lesion area in an untreated rice (200 ppm foliar spray): ≤ 30%
lesion area compared to the lesion area in an untreated rice (500 ppm foliar spray): ≤ 30%

CCC(=NN=C1CCOc2ccccc21)OCc1c(C)cccc1-n1nnn(C)c1=O [E-11]
lesion area compared to the lesion area in an untreated rice (200 ppm foliar spray): ≤ 30%

CCC(=NN=C(C)C(C)=NOCCOC)OCc1c(C)cccc1-n1nnn(C)c1=O [C-14]
lesion area compared to the lesion area in an untreated rice (200 ppm foliar spray): ≤ 30%
lesion area compared to the lesion area in an untreated rice (500 ppm foliar spray): ≤ 30%

CSC(=NCCc1ccccc1F)SCc1c(C)cccc1-n1nnn(C)c1=O [3-25]
lesion area compared to the lesion area in an untreated rice (200 ppm foliar spray): ≤ 30%

CCC(=NN=C(C)c1ccc2c(ccn2C)c1)OCc1c(C)cccc1-n1nnn(C)c1=O [D-7]
lesion area compared to the lesion area in an untreated rice (200 ppm foliar spray): ≤ 30%

CCON=C(C)C(C)=NN=C(CC)OCc1c(C)cccc1-n1nnn(C)c1=O [A-2]
lesion area compared to the lesion area in an untreated rice (200 ppm foliar spray): ≤ 30%
lesion area compared to the lesion area in an untreated rice (500 ppm foliar spray): ≤ 30%

CCC(=NN=C(C)c1cc(C)n(C)n1)OCc1c(C)cccc1-n1nnn(C)c1=O [D-18]
lesion area compared to the lesion area in an untreated rice (200 ppm foliar spray): ≤ 30%
lesion area compared to the lesion area in an untreated rice (500 ppm foliar spray): ≤ 30%

CCC(=NN=C(C)c1nn(C)c2ccccc12)OCc1c(C)cccc1-n1nnn(C)c1=O [D-16]
lesion area compared to the lesion area in an untreated rice (200 ppm foliar spray): ≤ 30%

CSC(=NCCCc1ccccc1)SCc1c(C)cccc1-n1nnn(C)c1=O [3-28]
lesion area compared to the lesion area in an untreated rice (200 ppm foliar spray): ≤ 30%
lesion area compared to the lesion area in an untreated rice (500 ppm foliar spray): ≤ 30%

CCC(=NN=C1CCOc2ccc(C)cc21)OCc1c(C)cccc1-n1nnn(C)c1=O [E-26]
lesion area compared to the lesion area in an untreated rice (200 ppm foliar spray): ≤ 30%
lesion area compared to the lesion area in an untreated rice (500 ppm foliar spray): ≤ 30%

CCC(=NN=C1CCOc2ccccc21)OCc1c(C2CC2)cccc1-n1nnn(C)c1=O [E-14]
lesion area compared to the lesion area in an untreated rice (200 ppm foliar spray): ≤ 30%
lesion area compared to the lesion area in an untreated rice (500 ppm foliar spray): ≤ 30%

CSC(=NCCc1ccc(Cl)cc1)SCc1c(C)cccc1-n1nnn(C)c1=O [3-33]
lesion area compared to the lesion area in an untreated rice (200 ppm foliar spray): ≤ 30%
lesion area compared to the lesion area in an untreated rice (500 ppm foliar spray): ≤ 30%

CCC(=NN=C1CCOc2ccccc21)OCc1c(OC)cccc1-n1nnn(C)c1=O [E-12]
lesion area compared to the lesion area in an untreated rice (500 ppm foliar spray): ≤ 30%

CCC(=NN=C(C)c1c(C)nn(C)c1Cl)OCc1c(C)cccc1-n1nnn(C)c1=O [D-1]
lesion area compared to the lesion area in an untreated rice (200 ppm foliar spray): ≤ 30%
lesion area compared to the lesion area in an untreated rice (500 ppm foliar spray): ≤ 30%

CCc1ccc(N=C(SC)SCc2c(C)cccc2-n2nnn(C)c2=O)cc1 [3-8]
lesion area compared to the lesion area in an untreated rice (200 ppm foliar spray): ≤ 30%
lesion area compared to the lesion area in an untreated rice (500 ppm foliar spray): ≤ 30%

CCC(=NN=C1CCOc2ccc(Cl)cc21)OCc1c(C)cccc1-n1nnn(C)c1=O [E-22]
lesion area compared to the lesion area in an untreated rice (200 ppm foliar spray): ≤ 30%
lesion area compared to the lesion area in an untreated rice (500 ppm foliar spray): ≤ 30%

CCC(=NN=C(C)c1ccc2c(c1)CCCC2)OCc1c(C)cccc1-n1nnn(C)c1=O [D-13]
lesion area compared to the lesion area in an untreated rice (200 ppm foliar spray): ≤ 30%

CCC(=NN=C1CCOc2cccc(F)c21)OCc1c(C)cccc1-n1nnn(C)c1=O [E-21]
lesion area compared to the lesion area in an untreated rice (200 ppm foliar spray): ≤ 30%
lesion area compared to the lesion area in an untreated rice (500 ppm foliar spray): ≤ 30%

CSC(=NCCCCc1ccccc1)SCc1c(C)cccc1-n1nnn(C)c1=O [3-29]
lesion area compared to the lesion area in an untreated rice (200 ppm foliar spray): ≤ 30%
lesion area compared to the lesion area in an untreated rice (500 ppm foliar spray): ≤ 30%

CCC(=NN=C1CCOc2cc(OC)ccc21)OCc1c(C)cccc1-n1nnn(C)c1=O [E-30]
lesion area compared to the lesion area in an untreated rice (200 ppm foliar spray): ≤ 30%
lesion area compared to the lesion area in an untreated rice (500 ppm foliar spray): ≤ 30%

CCC(=NN=C1CCc2ccc(OC)cc21)OCc1c(C)cccc1-n1nnn(C)c1=O [E-8]
lesion area compared to the lesion area in an untreated rice (200 ppm foliar spray): ≤ 30%
lesion area compared to the lesion area in an untreated rice (500 ppm foliar spray): ≤ 30%

CCC(=NN=C(C)c1cc2ccccc2s1)OCc1c(C)cccc1-n1nnn(C)c1=O [1-3]
lesion area compared to the lesion area in an untreated rice (200 ppm foliar spray): ≤ 30%
lesion area compared to the lesion area in an untreated rice (500 ppm foliar spray): ≤ 30%

CSC(=NCCc1cccc(Cl)c1)SCc1c(C)cccc1-n1nnn(C)c1=O [3-32]
lesion area compared to the lesion area in an untreated rice (200 ppm foliar spray): ≤ 30%
lesion area compared to the lesion area in an untreated rice (500 ppm foliar spray): ≤ 30%
